# Reference: US11213567B2, “ZAG-derived peptide and use thereof” (L&C Bio Co., LTD., priority 2017, dated 2022)
# Some results were stated once for a whole list of compounds, not compound by compound.
# How the values were obtained:
# IL-6 = test: Atopic dermatitis efficacy test using macrophages (RAW 264.7): IL-6 released after LPS, ELISA; format: cell-based, mouse; conditions: Example 1-1, FIG. 1A, 1 μg/mL 24 hours, LPS 0.1 μg/mL 24 hours, compared with group only treated with stimulator
# Procedure: (§1) To select an amino acid sequence corresponding to a key active site of ZAG having efficacy in the alleviation of atopic symptoms from 18 peptide candidate groups, an atopic dermatitis efficacy test was performed. Five types of immune-related cells were treated with ZAG peptide candidate groups (Z1-Z18, SEQ ID NOs: 1 to 18, respectively) and the ZAG protein (Z0, SEQ ID NOs: 19) at a concentration of 1 μg/mL for 24 hours, and then treated with a stimulator suitable for each cell line for the listed time to confirm an immune response. The experiment was performed with a group treated with only a stimulator as a positive control experimental group, and a group treated with only a vehicle without a stimulator as a negative control experimental group (Table 2: Efficacy test method for atopic dermatitis). An inflammatory response-related enzyme used as a stimulator is produced by immune cells, and histamine initiates an inflammatory response. The immune cells migrating to a damaged region release cytokines such as tumor necrosis factor-α (TNF-α) and interleukin-6 (IL-6) to directly lyse foreign invasive substances or collect other immune cells to initiate an inflammatory response. An efficacy test using inflammation-inducing materials, interferon-γ and skin inflammation-related factor CCL-17/thymus- and activation-regulated chemokine (TARC) was also performed to confirm an immune response.
# Macrophages (RAW 264.7 cells) were treated with a stimulator LPS at a concentration of 0.1 μg/mL for 24 hours, and then the concentration of IL-6 released in a cell culture medium was confirmed by ELISA assay.
# (§2) Various types of immune cells were treated with each of Z20mer-1, Z20mer-2, Z20mer-3, Z15mer-1, Z15mer-2, Z15mer-3 and Z15mer-4 at a concentration of 1 μg/mL for 24 hours, and then treated with a stimulator suitable for each cell line for the listed time to confirm an immune response. The atopic dermatitis efficacy test method was performed by the same method as described in Example 1 and Table 2.
# (§3) The experiment was performed with experimental groups: 1) negative control: vehicle-treated group (Neg), 2) positive control: a group treated with only a stimulator (Pos), and 3) experimental group: groups treated with a stimulator and ZAG3 or a ZAG3-derived oligopeptide (Z20mer-1, Z20mer-2, Z20mer-3, Z15mer-1, Z15mer-2, Z15mer-3 or Z15mer-4). Concentrations were measured from cell culture by ELISA.
# Macrophages (RAW 264.7 cells) were treated with a stimulator LPS at a concentration of 0.1 μg/mL for 24 hours, and then a concentration of IL-6 released in a cell culture medium was confirmed by ELISA assay.
# Histamine = test: Atopic dermatitis efficacy test using mast cells (RBL-2H3): histamine released after PMA and A23187, ELISA; format: cell-based, rat; conditions: Example 1-2, FIG. 1B, 1 μg/mL 24 hours, PMA 1 μg/mL and A23187 1 μg/mL 12 hours, compared with group only treated with stimulators
# Procedure: as §1
# Mast cells (RBL-2H3) were treated with 1 μg/mL of PMA and 1 μg/mL of A23187 as stimulators for 12 hours, and a concentration of histamine released in a cell culture medium was confirmed by ELISA assay.
# as §2, §3
# Mast cells (RBL-2H3) were treated with 1 μg/mL of PMA and 1 μg/mL of A23187 as simulators for 12 hours, and then a concentration of histamine released in a cell culture medium was confirmed by ELISA assay. As compared with the positive control (Pos), in all of the oligopeptide-treated groups, the histamine release was reduced (FIG. 2B).
# CCL17/TARC = test: Atopic dermatitis efficacy test using keratinocytes (HaCaT): CCL17/TARC released after TNF-α and IFN-γ, ELISA; format: cell-based, human; conditions: Example 1-3, FIG. 1C, 1 μg/mL 24 hours, TNF-α 0.4 μg/mL and IFN-γ 0.4 μg/mL 24 hours
# Procedure: as §1
# Keratinocytes (HaCaT cells) were treated with 0.4 μg/mL of TNF-α and 0.4 μg/mL of IFN-γ as stimulators for 24 hours, and then a concentration of CCL17/TARC released in a cell culture medium was confirmed by ELISA assay.
# as §2, §3
# IgE = test: Atopic dermatitis efficacy test using B lymphocytes (RPMI 1788): IgE released after LPS, ELISA; format: cell-based, human; conditions: Example 1-4, FIG. 1D, 1 μg/mL 24 hours, LPS 0.1 μg/mL 24 hours
# Procedure: as §1
# (§4) B lymphocytes (RPMI 1788) were treated with 0.1 μg/mL of LPS as a stimulator for 24 hours, and a concentration of IgE released in a cell culture medium was confirmed by ELISA assay.
# as §2, §3
# as §4, with “and then” for “and”, “assay. As compared with the positive control (Pos), in all of the oligopeptide-treated groups, IgE was reduced (FIG. 2D).” for “assay.”
Molecule,IL-6 concentration released in cell culture medium (IL-6),histamine concentration released in cell culture medium (Histamine),CCL17/TARC concentration released in cell culture medium (CCL17/TARC),IgE concentration released in cell culture medium (IgE)
"Z1: ZAG protein-derived peptide, SEQ ID NO. 1: QENQDGRYSLTYIYTGLSKHVEDVPAFQAL (ZAG protein-derived peptide)",significantly decreased,significantly decreased,significantly decreased,–
"Z2: ZAG protein-derived peptide, SEQ ID NO. 2: GSLNDLQFFRYNSKDRKSQPMGLWRQVEGM (ZAG protein-derived peptide)",significantly decreased,significantly decreased,significantly decreased,–
"Z3: ZAG protein-derived peptide, SEQ ID NO. 3: EDWKQDSQLQKAREDIFMETLKDIVEYYND (ZAG protein-derived peptide)",significantly decreased,significantly decreased,significantly decreased,significantly decreased
"Z4: ZAG protein-derived peptide, SEQ ID NO. 4: SNGSHVLQGRFGCEIENNRSSGAFWKYYYD (ZAG protein-derived peptide)",significantly decreased,significantly decreased,significantly decreased,significantly decreased
"Z5: ZAG protein-derived peptide, SEQ ID NO. 5: GKDYIEFNKEIPAWVPFDPAAQITKQKWEA (ZAG protein-derived peptide)",significantly decreased,significantly decreased,significantly decreased,significantly decreased
"Z6: ZAG protein-derived peptide, SEQ ID NO. 6: EPVYVQRAKAYLEEECPATLRKYLKYSKNI (ZAG protein-derived peptide)",significantly decreased,significantly decreased,significantly decreased,significantly decreased
"Z7: ZAG protein-derived peptide, SEQ ID NO. 7: LDRQDPPSVVVTSHQAPGEKKKLKCLAYDF (ZAG protein-derived peptide)",significantly decreased,significantly decreased,significantly decreased,significantly decreased
"Z8: ZAG protein-derived peptide, SEQ ID NO. 8: YPGKIDVHWTRAGEVQEPELRGDVLHNGNG (ZAG protein-derived peptide)",significantly decreased,significantly decreased,significantly decreased,significantly decreased
"Z9: ZAG protein-derived peptide, SEQ ID NO. 9: TYQSWVVVAVPPQDTAPYSCHVQHSSLAQP (listed as Homo sapiens)",significantly decreased,significantly decreased,–,–
"Z10: ZAG protein-derived peptide, SEQ ID NO. 10: GLSKHVEDVPAFQALGSLNDLQFFRYNSKD (ZAG protein-derived peptide)",significantly decreased,significantly decreased,significantly decreased,–
"Z11: ZAG protein-derived peptide, SEQ ID NO. 11: RKSQPMGLWRQVEGMEDWKQDSQLQKARED (ZAG protein-derived peptide)",–,significantly decreased,–,–
"Z12: ZAG protein-derived peptide, SEQ ID NO. 12: PFDPAAQITKQKWEAEPVYVQRAKAYLEEE (ZAG protein-derived peptide)",–,–,significantly decreased,significantly decreased
"Z13: ZAG protein-derived peptide, SEQ ID NO. 13: CPATLRKYLKYSKNILDRQDPPSVVVTSHQ (ZAG protein-derived peptide)",–,–,significantly decreased,significantly decreased
"Z14: ZAG protein-derived peptide, SEQ ID NO. 14: IFMETLKDIVEYYNDSNGSHVLQGRFGCEI (ZAG protein-derived peptide)",significantly decreased,significantly decreased,significantly decreased,significantly decreased
"Z15: ZAG protein-derived peptide, SEQ ID NO. 15: ENNRSSGAFWKYYYDGKDYIEFNKEIPAWV (listed as Homo sapiens)",–,significantly decreased,–,–
"Z16: ZAG protein-derived peptide, SEQ ID NO. 16: APGEKKKLKCLAYDFYPGKIDVHWTRAGEV (ZAG protein-derived peptide)",–,–,–,significantly decreased
"Z17: ZAG protein-derived peptide, SEQ ID NO. 17: QEPELRGDVLHNGNGTYQSWVVVAVPPQDT (ZAG protein-derived peptide)",–,significantly decreased,–,significantly decreased
"Z18: ZAG protein-derived peptide, SEQ ID NO. 18: AVPPQDTAPYSCHVQHSSLAQPLVVPWEAS (ZAG protein-derived peptide)",–,significantly decreased,significantly decreased,significantly decreased
"Z0: ZAG protein, entire sequence of 298 amino acids (GenBank: AAH05306.1; SEQ ID NO: 19) (protein, listed as Homo sapiens) MVRMVPVLLSLLLLLGPAVPQENQDGRYSLTYIYTGLSKHVEDVPAFQALGSLNDLQFFRYNSKDRKSQPMGLWRQVEGMEDWKQDSQLQKAREDIFMETLKDIVEYYNDSNGSHVLQGRFGCEIENNRSSGAFWKYYYDGKDYIEFNKEIPAWVPFDPAAQITKQKWEAEPVYVQRAKAYLEEECPATLRKYLKYSKNILDRQDPPSVVVTSHQAPGEKKKLKCLAYDFYPGKIDVHWTRAGEVQEPELRGDVLHNGNGTYQSWVVVAVPPQDTAPYSCHVQHSSLAQPLVVPWEAS",significantly decreased,significantly decreased,significantly decreased,significantly decreased
